Data taken from article PMC11335579.
These are yes or no findings as the source states them, for the method shown. Binding seen in cells or lysates may run through a third protein. Some results given as binding are weak or reduced against the parent protein; the word gives no strength.

Protein sequences, listed by entry. Tags and fused reporters are not part of them. Residues count along the entry.
UniProt P46937: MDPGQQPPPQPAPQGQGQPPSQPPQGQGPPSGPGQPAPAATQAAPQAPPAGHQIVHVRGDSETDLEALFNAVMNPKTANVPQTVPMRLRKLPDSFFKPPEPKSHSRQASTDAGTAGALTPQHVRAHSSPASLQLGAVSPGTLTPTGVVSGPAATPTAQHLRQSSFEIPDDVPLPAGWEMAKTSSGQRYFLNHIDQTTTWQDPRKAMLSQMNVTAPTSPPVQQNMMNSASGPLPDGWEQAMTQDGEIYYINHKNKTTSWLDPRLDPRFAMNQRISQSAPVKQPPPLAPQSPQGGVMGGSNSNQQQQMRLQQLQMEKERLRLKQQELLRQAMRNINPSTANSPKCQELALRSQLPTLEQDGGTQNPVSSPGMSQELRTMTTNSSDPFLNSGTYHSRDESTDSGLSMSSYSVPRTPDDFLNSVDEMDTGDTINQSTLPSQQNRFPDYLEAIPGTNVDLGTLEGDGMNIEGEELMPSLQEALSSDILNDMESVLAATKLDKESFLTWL
UniProt P29279, residues 27-349: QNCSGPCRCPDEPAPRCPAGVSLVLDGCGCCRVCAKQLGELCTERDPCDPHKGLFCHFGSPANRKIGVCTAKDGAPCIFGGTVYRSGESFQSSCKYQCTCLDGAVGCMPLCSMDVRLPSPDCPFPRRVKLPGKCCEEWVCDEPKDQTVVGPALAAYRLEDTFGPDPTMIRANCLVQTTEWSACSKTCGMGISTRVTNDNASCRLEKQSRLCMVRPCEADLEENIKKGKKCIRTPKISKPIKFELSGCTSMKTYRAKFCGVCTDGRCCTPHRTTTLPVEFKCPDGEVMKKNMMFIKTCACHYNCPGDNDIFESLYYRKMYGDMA

Target: Yes-associated protein (YAP) (human (endogenous in CAFs from NSCLC patients)) (UniProt P46937)
Experiment: co-IP; lysates of the indicated CAFs; coimmunoprecipitation kit (Absin #abs9649); lysate with YAP, CD248 or rabbit IgG antibody (2 ug per 1 mg of total protein) for 60 min, then secondary-antibody-bound beads overnight at 4°C; Western blot

binding: binds
Substance: Connective tissue growth factor (CTGF) (from UniProt P29279 27-349)
